Source: PubChem BioAssay AID493014 (National Center for Advancing Translational Sciences (NCATS), 2011)
The other results are listed elsewhere or left out. Shown are side measurements of this screen, not its main read-out; they come without a call. Most of these compounds were active or inconclusive in the main read-out, so they are no random draw. Words in brackets tell the shape of the fitted curve; partial curves, single points and poor fits give uncertain potencies.

Assay: qHTS Assay to Find Inhibitors of Chronic Active B-Cell Receptor Signaling
Conditions: ABC-DLBCL IkBa-CBG/CBR reporter, luminescence ratio (green luciferase fused to IkBa over red control in TMD8 lymphoma cells), 4 h
Procedure, shortened: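 TMD8 ABC-DLBCL cells carrying doxycycline-inducible green luciferase fused to IkappaBalpha plus unfused red luciferase were exposed to compounds (up to 46 uM) for 4 hrs at 37C. Activity came from the overlap-corrected green/red luminescence ratio.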

[1] = measured here: CBR red luminescence, cell number

Row | SMILES | AC50 [1] | AC50 (measured here: IkBa-CBG green luminescence)
1 | O=C(O)c1ccc(-n2cccc2/C=C2/NC(=O)N(c3ccccc3)C2=O)cc1 | 35.5 µM [rising, single point] | –
2 | COc1ccc2oc(=O)c(-c3nc(C)cs3)cc2c1 | – | 1 µM [rising, full curve]
3 | CC1CCCC(NC(=S)NC(=O)c2ccccc2Br)C1C (centres undefined) | 23.1 µM [falling, partial curve] | –
4 | CCOC(=O)c1c(-c2ccc(C)cc2)cn2ccccc12 | 25.1 µM [falling, single point] | –
5 | O=c1c2cc(N3CCOCC3)ccc2[nH]c(=S)n1Cc1ccco1 | 16.4 µM [falling, single point] | –
6 | Cc1ccc2c(C(=O)CN3CCSCC3)c(C)[nH]c2c1 | 5.17 µM [rising, partial curve, poor fit] | –
7 | OC(CN1CCCCC1)Cn1c2ccccc2c2cc(Br)ccc21 (centres undefined) | 14.1 µM [falling, single point] | –
8 | O=C(Nc1ccc2nsnc2c1)c1cccs1 | 7.94 µM [falling, partial curve] | –
9 | c1ccc(-c2cnn3c(-c4ccccc4)c(-c4ccccc4)nc3n2)cc1 | 2.06 µM [falling, full curve] | –
10 | Cc1ccc(Cn2c(=N)n(CC(O)COc3ccccc3)c3ccccc32)cc1 (centres undefined) | 25.9 µM [falling, partial curve] | –
11 | CSc1nc2ccccc2n1Cc1cccc(F)c1 | 1.84 µM [falling, partial curve, poor fit] | –
12 | Cc1cc(=O)oc2cc(OCC3CC(c4ccccc4)=NO3)ccc12 (centres undefined) | 0.731 µM [rising, full curve, poor fit] | –
13 | N#Cc1c(NC(=O)CSc2nnc(-c3ccccc3)o2)sc2c1CCCC2 | 2.31 µM [rising, partial curve, poor fit] | –
14 | CCCOc1ccc(C(=O)N2CCN(c3ccc(NC(=O)CC)cc3Cl)CC2)cc1 | 3.66 µM [falling, full curve, poor fit] | –
15 | O=C(NCCC(=O)N(Cc1ccco1)Cc1cccs1)c1ccccc1Cl | 10.3 µM [falling, partial curve, poor fit] | –
16 | O=[N+]([O-])c1cc(C=Nc2cccc3c(O)cccc23)ccc1Cl | 15.8 µM [falling, partial curve] | –
17 | COc1ccc(CCNC(=O)COc2ccc(S(=O)(=O)NC3CCCCC3)cc2Cl)cc1OC | 6.51 µM [rising, partial curve, poor fit] | –
18 | COc1ccc(NC(=O)c2nc[nH]c2C(=O)N2CCN(c3ccccc3)CC2)cc1 | 3.16 µM [rising, single point] | –
19 | OC(CN1CCN(c2cccc(Cl)c2)CC1)c1ccccc1 (centres undefined) | 22.4 µM [rising, single point] | –

Single entries from the list.
AC50 [1] with O=C(Nc1ccc2nsnc2c1)c1cccs1 is entered as 7.94 µM [falling, partial curve]
AC50 [1] with COc1ccc(NC(=O)c2nc[nH]c2C(=O)N2CCN(c3ccccc3)CC2)cc1 is entered as 3.16 µM [rising, single point]
